The text below walks through data of PMC8576121.

Holding throughout (experiment): affinity purification with mass spectrometry; N-His6 bait overproduced in H. volcanii; cytoplasmic extract on nickel chelating sepharose at room temperature in 2.1 M NaCl, 20 mM HEPES, 20 mM imidazole; four washes with 30 mM imidazole, elution with 700 mM imidazole; no RNase step, no cross-linking; co-isolated proteins identified by LC-MS/MS; three biological replicates; proteins found in the empty-vector or DHFR controls removed

For test [1], the target named is T1, DNA-directed RNA polymerase subunit Rpo1C (Haloferax volcanii) (UniProt D4GZX7).
T1 sequence: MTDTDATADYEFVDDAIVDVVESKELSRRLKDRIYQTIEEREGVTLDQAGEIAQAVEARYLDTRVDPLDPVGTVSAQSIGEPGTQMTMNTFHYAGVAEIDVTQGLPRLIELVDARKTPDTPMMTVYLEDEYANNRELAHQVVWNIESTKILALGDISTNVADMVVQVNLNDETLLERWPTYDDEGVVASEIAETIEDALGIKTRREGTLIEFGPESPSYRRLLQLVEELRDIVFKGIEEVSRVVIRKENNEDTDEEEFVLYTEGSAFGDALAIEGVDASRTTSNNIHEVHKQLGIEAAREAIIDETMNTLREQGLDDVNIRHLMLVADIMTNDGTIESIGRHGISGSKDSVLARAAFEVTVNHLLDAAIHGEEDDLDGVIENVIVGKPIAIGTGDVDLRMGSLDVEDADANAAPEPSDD

The target of test [2] is T2, DNA-directed RNA polymerase subunit Rpo3 (Haloferax volcanii) (UniProt D4GWY4).
T2 sequence: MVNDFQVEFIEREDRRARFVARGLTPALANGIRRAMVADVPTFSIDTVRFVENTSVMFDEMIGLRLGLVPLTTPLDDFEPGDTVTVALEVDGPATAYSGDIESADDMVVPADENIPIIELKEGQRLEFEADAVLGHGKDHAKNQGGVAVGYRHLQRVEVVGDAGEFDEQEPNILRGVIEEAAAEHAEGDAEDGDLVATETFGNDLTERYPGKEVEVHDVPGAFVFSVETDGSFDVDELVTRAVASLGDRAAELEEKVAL

The target in test [3] is T3, DNA-directed RNA polymerase subunit Rpo2N (Haloferax volcanii) (UniProt D4GZX4).
T3 sequence: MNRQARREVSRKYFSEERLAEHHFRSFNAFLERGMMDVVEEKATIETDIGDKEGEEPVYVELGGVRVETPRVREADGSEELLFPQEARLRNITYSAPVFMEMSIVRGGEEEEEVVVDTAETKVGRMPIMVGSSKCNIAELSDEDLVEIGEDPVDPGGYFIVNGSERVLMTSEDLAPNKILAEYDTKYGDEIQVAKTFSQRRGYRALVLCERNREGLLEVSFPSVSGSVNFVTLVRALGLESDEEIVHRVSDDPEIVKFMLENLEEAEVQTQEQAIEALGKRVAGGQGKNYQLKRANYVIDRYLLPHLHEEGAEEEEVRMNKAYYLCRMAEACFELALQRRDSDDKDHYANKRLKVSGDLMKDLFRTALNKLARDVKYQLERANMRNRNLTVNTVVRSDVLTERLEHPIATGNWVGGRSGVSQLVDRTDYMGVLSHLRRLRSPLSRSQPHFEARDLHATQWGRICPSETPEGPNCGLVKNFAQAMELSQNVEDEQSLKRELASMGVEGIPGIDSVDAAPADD

In test [4] the target is T4, DNA-directed RNA polymerase subunit Rpo11 (Haloferax volcanii) (UniProt D4GVL8).
T4 sequence: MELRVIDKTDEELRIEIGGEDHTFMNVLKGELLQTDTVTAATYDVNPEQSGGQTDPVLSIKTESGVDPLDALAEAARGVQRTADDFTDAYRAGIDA

For test [5], the target named is T5, DNA-directed RNA polymerase subunit Rpo5 (Haloferax volcanii) (UniProt D4GZX3).
T5 sequence: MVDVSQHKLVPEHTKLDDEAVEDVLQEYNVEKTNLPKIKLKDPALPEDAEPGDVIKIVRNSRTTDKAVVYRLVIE

For test [6], the target named is T6, DNA-directed RNA polymerase subunit Rpo1N (Haloferax volcanii) (UniProt D4GZX6).
T6 sequence: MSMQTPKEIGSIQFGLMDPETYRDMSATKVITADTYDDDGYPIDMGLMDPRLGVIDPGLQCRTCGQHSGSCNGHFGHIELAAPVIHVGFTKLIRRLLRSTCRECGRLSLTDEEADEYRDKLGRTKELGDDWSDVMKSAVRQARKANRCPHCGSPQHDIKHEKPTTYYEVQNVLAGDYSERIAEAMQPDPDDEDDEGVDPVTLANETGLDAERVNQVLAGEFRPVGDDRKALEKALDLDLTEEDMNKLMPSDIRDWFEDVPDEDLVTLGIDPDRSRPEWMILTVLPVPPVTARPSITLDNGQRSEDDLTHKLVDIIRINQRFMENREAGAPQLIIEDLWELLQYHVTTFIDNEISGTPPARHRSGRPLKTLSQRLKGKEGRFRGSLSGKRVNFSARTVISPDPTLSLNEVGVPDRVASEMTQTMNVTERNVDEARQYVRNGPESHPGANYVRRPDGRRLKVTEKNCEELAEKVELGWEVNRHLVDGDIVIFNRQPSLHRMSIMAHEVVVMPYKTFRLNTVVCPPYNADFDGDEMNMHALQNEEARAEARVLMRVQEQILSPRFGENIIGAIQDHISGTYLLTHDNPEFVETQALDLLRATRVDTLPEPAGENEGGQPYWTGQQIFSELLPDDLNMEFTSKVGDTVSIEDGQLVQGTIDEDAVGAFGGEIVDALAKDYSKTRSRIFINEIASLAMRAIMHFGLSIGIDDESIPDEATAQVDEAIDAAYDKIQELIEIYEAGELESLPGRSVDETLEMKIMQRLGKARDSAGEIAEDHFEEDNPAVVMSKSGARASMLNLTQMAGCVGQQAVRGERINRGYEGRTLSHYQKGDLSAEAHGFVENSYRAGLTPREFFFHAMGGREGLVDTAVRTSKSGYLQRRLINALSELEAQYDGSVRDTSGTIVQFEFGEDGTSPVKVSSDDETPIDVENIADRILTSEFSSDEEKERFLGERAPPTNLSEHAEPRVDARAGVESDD

Test [7] deals with T7, translation initiation factor aIF2 beta subunit / probable RNA-binding protein (aIF2β-2) (Haloferax volcanii) (UniProt D4GVV8).
T7 sequence: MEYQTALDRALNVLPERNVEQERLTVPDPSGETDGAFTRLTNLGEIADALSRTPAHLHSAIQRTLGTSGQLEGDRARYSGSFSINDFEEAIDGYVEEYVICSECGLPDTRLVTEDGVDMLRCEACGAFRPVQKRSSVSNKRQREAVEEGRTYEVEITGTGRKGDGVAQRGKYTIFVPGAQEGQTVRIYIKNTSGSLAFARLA

Test [8] addresses T8, translation initiation factor aIF2 gamma subunit (Haloferax volcanii) (UniProt D4GTD4).
T8 sequence: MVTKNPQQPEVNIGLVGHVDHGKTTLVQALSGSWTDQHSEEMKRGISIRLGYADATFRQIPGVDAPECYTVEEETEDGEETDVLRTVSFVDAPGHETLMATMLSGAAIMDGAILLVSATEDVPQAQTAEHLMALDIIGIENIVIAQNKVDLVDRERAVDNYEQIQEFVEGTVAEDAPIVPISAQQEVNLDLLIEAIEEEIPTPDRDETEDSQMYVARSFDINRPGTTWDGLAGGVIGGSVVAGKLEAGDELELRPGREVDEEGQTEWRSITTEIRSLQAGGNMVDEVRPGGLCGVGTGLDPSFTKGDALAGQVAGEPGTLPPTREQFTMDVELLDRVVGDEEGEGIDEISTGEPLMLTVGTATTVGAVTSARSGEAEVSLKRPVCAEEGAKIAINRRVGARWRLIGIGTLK

Test [9] addresses T5, DNA-directed RNA polymerase subunit Rpo5 (Haloferax volcanii). This is another data set of the same source.
Test [10] addresses T9, translation initiation factor aIF2 alpha subunit (Haloferax volcanii) (UniProt D4GT46).
T9 sequence: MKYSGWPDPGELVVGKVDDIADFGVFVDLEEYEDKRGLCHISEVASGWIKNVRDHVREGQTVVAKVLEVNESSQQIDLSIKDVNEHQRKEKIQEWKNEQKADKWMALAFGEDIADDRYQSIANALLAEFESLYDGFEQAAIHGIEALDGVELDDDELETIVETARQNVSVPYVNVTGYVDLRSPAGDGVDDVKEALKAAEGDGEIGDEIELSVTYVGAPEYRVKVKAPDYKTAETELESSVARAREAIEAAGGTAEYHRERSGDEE

Read-outs that look alike come from different tables or passages of the source. These are yes or no findings as the source states them, for the method shown. In cells and extracts the contact can be indirect. Here binding means that the protein was enriched with, or labelled near, the bait; the list need not be complete. For some assays here: No binding means not detected with the bait.

As for NusG, the binding result in [1], in test [2], in test [3], in test [4], in test [5] and in test [6] was “no binding” in each case.

NusA: the binding entry in test [1], in test [2], in test [3], in test [4], in [5] and in [6] was “no binding” each time.

B1: translation initiation factor aIF2 alpha subunit (protein, UniProt D4GT46 1-266)
chain: T9 sequence
For B1, the binding entry in test [7], in test [8] and in test [9] was “binds” in each case.

B2: translation initiation factor aIF2 beta subunit / probable RNA-binding protein (aIF2β-2) (protein, UniProt D4GVV8 1-202)
chain: T7 sequence
Consider B2, for which the binding entry in test [10] and in test [8] was “binds” each time.
